From publication PMC11009390
Where two headings read alike, the source gives them in different places. These are yes or no findings as the source states them, for the method shown. Binding seen in cells or lysates may run through a third protein. Some binding calls cover weakened binding; strength is not graded here.

The chains behind the UniProt entries cited, without tags or fusion partners.
UniProt P01100: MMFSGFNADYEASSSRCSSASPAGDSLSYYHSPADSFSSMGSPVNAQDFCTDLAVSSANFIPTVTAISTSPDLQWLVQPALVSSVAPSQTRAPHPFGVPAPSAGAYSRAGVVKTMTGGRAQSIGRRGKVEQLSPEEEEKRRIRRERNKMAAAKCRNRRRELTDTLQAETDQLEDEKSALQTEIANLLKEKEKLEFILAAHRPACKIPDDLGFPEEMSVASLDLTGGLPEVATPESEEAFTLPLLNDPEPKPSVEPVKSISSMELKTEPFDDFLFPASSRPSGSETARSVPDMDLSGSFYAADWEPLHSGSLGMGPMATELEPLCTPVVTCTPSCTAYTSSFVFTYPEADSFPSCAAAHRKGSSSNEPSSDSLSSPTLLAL

Columns and labels:
[1] = target: p41Plk3, Dox-inducible, in HPNE cells (human) (UniProt Q9H4B4); test: proximity ligation; Duolink In Situ Red kit on fixed, permeabilised HPNE-Tet-p41Plk3 cells; rabbit anti-Plk3 and mouse anti-c-Fos antibodies, 4 °C overnight; dots per cell
[2] = target: Flag-Plk3NT^1-353 (p41Plk3) (human) (UniProt Q9H4B4); test: co-IP; 1 mg protein extract of cells (PANC-1) transfected with the Flag-tagged Plk3 construct, anti-Flag (M2) magnetic beads, 4 °C overnight; partner detected by Western blot
[3] = target: Flag-Plk3NT^1-353 (p41Plk3) (human) (UniProt Q9H4B4); test: as above; remark: listed apart in the source

binding [3]	Molecule	also measured
binds	Plk3CT^354-646 (domain or fragment, UniProt Q9H4B4 354-646) RKKKSKNHAQERDEVSGLVSGLMRTSVGHQDARPEAPAASGPAPVSLVETAPEDSSPRGTLASSGDGFEEGLTVATVVESALCALRNCIAFMPPAEQNPAPLAQPEPLVWVSKWVDYSNKFGFGYQLSSRRVAVLFNDGTHMALSANRKTVHYNPTSTKHFSFSVGAVPRALQPQLGILRYFASYMEQHLMKGGDLPSVEEVEVPAPPLLLQWVKTDQALLMLFSDGTVQVNFYGDHTKLILSGWEPLLVTFVARNRSACTYLASHLRQLGCSPDLRQRLRYALRLLRDRSPA	
binds	Plk3CT^354-646 P454R (domain or fragment, UniProt Q9H4B4 354-646) RKKKSKNHAQERDEVSGLVSGLMRTSVGHQDARPEAPAASGPAPVSLVETAPEDSSPRGTLASSGDGFEEGLTVATVVESALCALRNCIAFMPPAEQNPARLAQPEPLVWVSKWVDYSNKFGFGYQLSSRRVAVLFNDGTHMALSANRKTVHYNPTSTKHFSFSVGAVPRALQPQLGILRYFASYMEQHLMKGGDLPSVEEVEVPAPPLLLQWVKTDQALLMLFSDGTVQVNFYGDHTKLILSGWEPLLVTFVARNRSACTYLASHLRQLGCSPDLRQRLRYALRLLRDRSPA	

Second part, the molecule before the results:

Molecule	binding [3]	also measured
c-Fos (in HPNE cells) (from UniProt P01100 1-380)		binding [1]: binds
c-Fos (in PANC-1 cells) (from UniProt P01100 1-380)		binding [2]: binds
Plk3CT^354-646 K473A (domain or fragment, UniProt Q9H4B4 354-646) RKKKSKNHAQERDEVSGLVSGLMRTSVGHQDARPEAPAASGPAPVSLVETAPEDSSPRGTLASSGDGFEEGLTVATVVESALCALRNCIAFMPPAEQNPAPLAQPEPLVWVSKWVDYSNAFGFGYQLSSRRVAVLFNDGTHMALSANRKTVHYNPTSTKHFSFSVGAVPRALQPQLGILRYFASYMEQHLMKGGDLPSVEEVEVPAPPLLLQWVKTDQALLMLFSDGTVQVNFYGDHTKLILSGWEPLLVTFVARNRSACTYLASHLRQLGCSPDLRQRLRYALRLLRDRSPA	binds	
